Measurements from “University of Dundee, Small-Polar-MMV Screening Library” (2021), ChEMBL document CHEMBL3988442.

Protein sequences, listed by entry. Tags and fused reporters are not part of them.
UniProt E9BF75, entry or part of it: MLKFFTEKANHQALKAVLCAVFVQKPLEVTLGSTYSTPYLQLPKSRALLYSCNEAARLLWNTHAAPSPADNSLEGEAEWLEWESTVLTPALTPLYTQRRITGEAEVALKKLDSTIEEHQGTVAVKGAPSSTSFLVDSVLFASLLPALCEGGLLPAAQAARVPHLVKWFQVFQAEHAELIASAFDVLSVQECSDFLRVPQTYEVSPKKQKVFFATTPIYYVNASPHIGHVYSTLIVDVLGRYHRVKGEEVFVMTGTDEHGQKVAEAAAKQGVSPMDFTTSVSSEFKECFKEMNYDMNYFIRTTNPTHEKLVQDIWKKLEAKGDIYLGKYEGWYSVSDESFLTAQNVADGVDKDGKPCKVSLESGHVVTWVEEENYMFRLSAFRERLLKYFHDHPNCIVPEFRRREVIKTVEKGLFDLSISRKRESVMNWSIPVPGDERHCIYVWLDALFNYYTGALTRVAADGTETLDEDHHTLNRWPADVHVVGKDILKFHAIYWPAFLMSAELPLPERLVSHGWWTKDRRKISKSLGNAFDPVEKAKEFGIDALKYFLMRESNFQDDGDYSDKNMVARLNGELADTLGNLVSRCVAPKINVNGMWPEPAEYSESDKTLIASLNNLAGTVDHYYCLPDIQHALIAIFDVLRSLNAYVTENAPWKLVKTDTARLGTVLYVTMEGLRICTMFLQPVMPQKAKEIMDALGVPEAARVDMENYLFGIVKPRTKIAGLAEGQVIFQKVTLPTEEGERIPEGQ

Results are percentages, as filed.
The record does not define 0% and 100%; most values in the screen are far below 50% and negative numbers occur (in some assays of this library far below -100).
The compounds are a random part of those screened.
A dash means the value is not listed here; it may have been measured.

A: 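Assay on Mycobacterium tuberculosis, filed only as a heat shock assay from Cornell; the read-out is not stated. The concentration is filed as 10 mM, unlikely as a test dose, so the dose is not known. Direction is inferred from retests: higher values go with stronger inhibition. Size under these conditions: about 69,000 compounds, about 930 of them at 50% or above in at least one test.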
B: 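Primary screen of methionyl-tRNA synthetase; the read-out is not stated. Target: Methionyl-tRNA synthetase (putative), Leishmania donovani (UniProt E9BF75). The test concentration is not given. The values are filed as inhibition. Size under these conditions: about 68,000 compounds, about 24 of them at 50% or above in at least one test.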
C: 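Whole-cell assay for inhibitors of Mycobacterium tuberculosis growth, labelled Cornell in the record; the read-out is not stated. The concentration is filed as 10 mM, unlikely as a test dose, so the dose is not known. The record gives no direction; compounds strong in two other growth screens of this library score well above the rest, so higher reads as stronger inhibition. About 53,000 compounds were tested under these conditions; 1.7% (about 900) showed 50% or more at least once.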

SMILES | A | B | C
NS(=O)(=O)c1ccc(NCc2ccccc2)cc1C(F)(F)F | -0.2987% | 9.582% | 39.32%
CC(C)C(=O)NC1CC2(CCN(CC(=O)N(C)C)CC2)c2ccccc21.O=C(O)C(F)(F)F (stereo not drawn) | 21.32% | - | -7.265%
Cc1cccc(CN2CCc3ncnc(Oc4cccnc4)c3CC2)n1 | -19.98% | 15.34% | -16.28%
CCCN(CCC)c1nc(N)nc(-c2cc(Cl)ccc2OC)n1 | -9% | 23.16% | 61.82%
O=C(O)C(F)(F)F.O=C(O)C(F)(F)F.[H][C@@]12CCN(Cc3cccc(C)n3)[C@]1([H])CC[C@@H](C(=O)Nc1cnccn1)O2 | -10.98% | - | 14.7%
O=C(O)C(F)(F)F.[H][C@@]12CCN(Cc3nccs3)[C@]1([H])CC[C@H](C(=O)NCc1ccco1)O2 | -12.88% | - | 24.58%
CNC(=O)c1cc(NC(=O)NC2CC2)ccc1F | 2.352% | 11.56% | -
CCOc1ccc(Cl)c(C(=O)NC(C)C(N)=O)n1 (stereo not drawn) | -17.98% | 6.522% | 39.72%
COc1ccc(F)c(CN2CCCC3(CCN(C4CCOCC4)C3)C2)c1 (stereo not drawn) | 99.36% | 6.989% | 39.57%
COCC(=O)NC(c1ccc(Cl)cc1)C(F)(F)F (stereo not drawn) | 12.88% | 10.82% | -7.272%
CCCn1nccc1C(=O)Nc1nc(C)c(C)s1 | -16.79% | 5.995% | 63.52%
CN(C)C(=O)c1coc(COc2ccccc2)n1 | 3.195% | 1.875% | -
O=C(NC[C@H]1C[C@@H]2CCN1C[C@@H]2CN1CCCCC1)Nc1ccsc1 | - | 10.44% | -
Cc1nn(C)c(C)c1S(=O)(=O)N(C)Cc1nn(C)c(Cl)c1Cl | -0.1566% | 9.774% | -
O=S1(=O)NC(c2ccnc(N3CCCC3)n2)=Nc2ccccc21 | -4.664% | 7.937% | 2.45%
CN(CCCc1cc(-c2cccc(F)c2)n[nH]1)C(=O)Cn1cncn1 | -1.293% | 12.24% | 16.39%
CCOc1ccc2[nH]c(=O)c(CN3CCC(N4CCCC4)CC3)cc2c1 | -6.838% | 13.35% | -24.35%
COc1ccccc1-c1csc(NC(=O)N2CCN(C)CC2C)n1 (stereo not drawn) | -11.65% | 14.21% | -
COC(=O)c1ccc(CNC(=O)Cc2csc(C(C)=O)c2)cc1 | -10.3% | 4.396% | -
O=C(NC1CC1)N1CCc2ccc(=O)n(Cc3ccncc3)c2CC1 | -15.43% | 4.498% | -11.75%
CC(C)[C@H]1CN(CCS(C)(=O)=O)C[C@@H]1NC(=O)c1ccc(=O)[nH]c1 | -9.294% | 8.075% | -
O=C(NCC1CC1)[C@H]1C[C@@H]2[C@@H](C1)OCCN2Cc1cccnc1 | - | 6.276% | -
CC(C)Nc1cc(-c2c[nH]nc2C2CCN(C(=O)C3CC3)C2)ccn1 (stereo not drawn) | -2.679% | 21.56% | 31.29%
CN(CCCc1nccn1C)C(=O)C1CCN(C(=O)C2CCC2)CC1 | 1.831% | 16.15% | 9.52%
Cc1nn(C)c(C)c1C1CCCN1Cc1nc2ccccc2c(=O)[nH]1 (stereo not drawn) | -24.66% | 22.95% | -
Cc1ccnc(NCC2(N(C)C)CCOCC2)n1 | 2.676% | 6.137% | 12.43%
O=c1oc(-c2ccc(F)cc2)nn1CN1CCCCC1 | -9.419% | 12.82% | -92.62%
O=C(O)C(F)(F)F.[H][C@@]12CCN(Cc3ccc(F)cc3)[C@]1([H])CC[C@H](COCC1CCOCC1)O2 | -16.61% | - | -
c1nc(N2CCCC2Cn2cncn2)c2sccc2n1 (stereo not drawn) | -3.854% | 4.762% | -
CN(C)C1CCN(C(=O)c2cc(-c3ccn(C)n3)n3ccccc23)CC1.O=C(O)C(F)(F)F | 44.75% | - | 11.1%
CC(C)N1CCC(CNCc2c[nH]nc2C(C)(C)C)C1 (stereo not drawn) | 82.49% | 11.11% | 7.799%
Cc1cc(CNc2ccc3nc(C)sc3c2)no1 | -18.84% | 7.971% | 23.73%
Cc1cccc(CNC(=O)Nc2ccc3c(c2)CCCC(=O)N3)c1 | 13.79% | 11.59% | 17.62%
c1cnnc(NCC2CN(CCN3CCCCC3)CCO2)c1 (stereo not drawn) | 4.077% | 1.215% | 8.483%
COCc1ccccc1CNc1nnc(C)c(C)c1C#N | 28.24% | 6.032% | 4.67%
O=C(c1ccccn1)N1CCCN(Cc2nnc(C3CC3)o2)CC1 | 27.04% | 8.591% | -48.46%
O=C(O)C(F)(F)F.c1cncc(-c2ccc3c(c2)C2(CC3)CCN(c3nncs3)CC2)c1 | 12.31% | - | 85.45%
CC1(C)[C@H](Cc2cc(CO)on2)C[C@@H]1N(CC1CC1)CC1CC1 | -31.15% | 0% | -7.621%
[H][C@]12CCN(Cc3ccc4c(c3)OCO4)[C@@]1([H])CCN2CCN(C)C | -11.68% | - | -
CCCC(=O)NC(C(=O)OC)c1cc(F)ccc1F (stereo not drawn) | -4.826% | 15.34% | -
COCCCn1cnnc1CNc1cc(C)nc2ccnn12 | -4.935% | 4.693% | 14.84%
CC(=O)NC1CCN(c2ccnc(C3CCNCC3)c2)CC1 | - | 19.15% | -
Cc1cnc(C)c(N2CCCC(C/C=C/c3ccccc3)(C(=O)O)C2)n1 (stereo not drawn) | -6.086% | 25.17% | 14.7%
c1cnn(C2CN(CCCOc3ccc4c(c3)OCO4)C2)c1 | 4.963% | 7.888% | -1.912%
CN(C)C(=O)CN1CCCC(c2nccnc2-c2cccc(Cl)c2)C1 (stereo not drawn) | -0.5558% | 9.884% | 27.94%
CN1CCC2(C=C(C(=O)N3CCCC3)c3ccccc32)CC1 | - | 3.763% | -
CCc1cnc(CN(C)C(=O)Nc2cnc3c(c2)c(C)nn3C)s1 | 14.31% | 13.97% | -
CSc1ncnc(NCc2ccco2)c1C#N | -3.056% | 9.353% | 19.15%
CN(C)S(=O)(=O)N1CC[C@]2(O)CCN(CCc3cccc(F)c3)C[C@@H]2C1 | - | -2.801% | -
O=C(NC1CCN(C2CC2)CC1)c1[nH]nc(C2CC2)c1Cl | -6.954% | 22.34% | 23.26%
Cc1cc(C)n(CC(=O)N2CCC(c3ccn4nccc4n3)CC2)n1 | -24.3% | 12.89% | -4.717%

Some entries from above, unchanged:

For CCCn1nccc1C(=O)Nc1nc(C)c(C)s1 the result was A: -16.79%; B: 5.995%; C: 63.52%.
For CN1CCC2(C=C(C(=O)N3CCCC3)c3ccccc32)CC1 the result was B: 3.763%.
For COC(=O)c1ccc(CNC(=O)Cc2csc(C(C)=O)c2)cc1 the result was A: -10.3%; B: 4.396%.
For c1cnnc(NCC2CN(CCN3CCCCC3)CCO2)c1 (stereo not drawn) the result was A: 4.077%; B: 1.215%; C: 8.483%.
For CN(C)C1CCN(C(=O)c2cc(-c3ccn(C)n3)n3ccccc23)CC1.O=C(O)C(F)(F)F the result was A: 44.75%; C: 11.1%.
For CN(C)S(=O)(=O)N1CC[C@]2(O)CCN(CCc3cccc(F)c3)C[C@@H]2C1 the result was B: -2.801%.